Reference: the supplement of paper PMC10849652
Some of the results follow.

Amino acid sequences for entries named in this document (tags omitted). A change or cut given only in a name is not applied to a line headed by its entry.
UniProt Q9Y664: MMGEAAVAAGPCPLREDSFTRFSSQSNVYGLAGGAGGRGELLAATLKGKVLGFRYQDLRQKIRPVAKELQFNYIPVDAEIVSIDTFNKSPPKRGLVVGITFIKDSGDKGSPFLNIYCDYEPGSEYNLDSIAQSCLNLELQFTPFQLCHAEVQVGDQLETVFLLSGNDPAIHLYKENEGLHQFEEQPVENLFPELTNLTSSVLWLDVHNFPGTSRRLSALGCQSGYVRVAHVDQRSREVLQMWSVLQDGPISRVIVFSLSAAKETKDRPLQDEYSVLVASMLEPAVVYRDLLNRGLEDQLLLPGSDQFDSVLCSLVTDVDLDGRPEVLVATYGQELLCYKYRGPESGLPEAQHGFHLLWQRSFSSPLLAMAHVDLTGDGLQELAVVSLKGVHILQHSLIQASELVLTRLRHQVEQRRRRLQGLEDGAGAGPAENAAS
UniProt Q14974, whole entry, looked up: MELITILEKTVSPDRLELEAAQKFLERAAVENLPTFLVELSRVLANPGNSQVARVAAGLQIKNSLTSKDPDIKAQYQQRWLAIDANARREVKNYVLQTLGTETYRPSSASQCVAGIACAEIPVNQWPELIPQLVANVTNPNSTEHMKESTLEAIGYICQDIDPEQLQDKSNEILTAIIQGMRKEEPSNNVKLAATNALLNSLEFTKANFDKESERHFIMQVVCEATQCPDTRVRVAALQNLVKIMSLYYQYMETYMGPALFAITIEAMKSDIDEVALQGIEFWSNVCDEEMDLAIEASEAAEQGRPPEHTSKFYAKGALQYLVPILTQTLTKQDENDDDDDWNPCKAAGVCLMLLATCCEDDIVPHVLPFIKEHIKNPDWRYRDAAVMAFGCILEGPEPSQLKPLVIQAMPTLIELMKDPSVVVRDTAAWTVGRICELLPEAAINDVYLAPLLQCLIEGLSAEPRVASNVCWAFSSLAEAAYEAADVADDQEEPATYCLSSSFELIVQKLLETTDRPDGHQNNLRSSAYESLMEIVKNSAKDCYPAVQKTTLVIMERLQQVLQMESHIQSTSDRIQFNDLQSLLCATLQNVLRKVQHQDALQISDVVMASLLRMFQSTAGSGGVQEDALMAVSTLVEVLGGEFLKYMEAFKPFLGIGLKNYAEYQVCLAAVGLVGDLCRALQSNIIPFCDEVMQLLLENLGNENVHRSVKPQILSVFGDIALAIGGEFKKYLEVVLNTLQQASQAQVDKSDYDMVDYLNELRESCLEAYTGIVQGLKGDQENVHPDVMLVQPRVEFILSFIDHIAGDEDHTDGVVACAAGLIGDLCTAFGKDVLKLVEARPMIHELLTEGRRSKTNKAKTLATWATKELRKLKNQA
UniProt Q96SI1: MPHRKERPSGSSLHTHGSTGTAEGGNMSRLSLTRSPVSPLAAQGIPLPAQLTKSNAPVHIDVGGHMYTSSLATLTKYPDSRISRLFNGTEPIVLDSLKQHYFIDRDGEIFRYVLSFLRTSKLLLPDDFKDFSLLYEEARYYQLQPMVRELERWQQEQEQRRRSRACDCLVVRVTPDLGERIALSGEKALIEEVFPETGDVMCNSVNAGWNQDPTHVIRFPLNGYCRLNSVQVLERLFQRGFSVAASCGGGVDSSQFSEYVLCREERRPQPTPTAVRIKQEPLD
UniProt P33947: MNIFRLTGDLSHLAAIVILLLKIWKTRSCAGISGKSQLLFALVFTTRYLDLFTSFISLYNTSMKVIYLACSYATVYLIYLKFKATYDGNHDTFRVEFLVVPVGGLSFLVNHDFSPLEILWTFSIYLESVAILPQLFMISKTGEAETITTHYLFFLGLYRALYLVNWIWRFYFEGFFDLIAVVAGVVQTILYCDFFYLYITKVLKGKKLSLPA
UniProt Q9H3F6: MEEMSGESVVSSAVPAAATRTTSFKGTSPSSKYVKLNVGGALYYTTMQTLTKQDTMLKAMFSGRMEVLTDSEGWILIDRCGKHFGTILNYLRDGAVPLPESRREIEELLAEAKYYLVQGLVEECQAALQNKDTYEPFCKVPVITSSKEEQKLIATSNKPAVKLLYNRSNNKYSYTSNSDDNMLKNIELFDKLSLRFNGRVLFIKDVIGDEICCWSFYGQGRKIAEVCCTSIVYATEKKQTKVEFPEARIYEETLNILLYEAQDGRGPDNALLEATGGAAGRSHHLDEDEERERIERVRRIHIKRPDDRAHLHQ
UniProt P17535: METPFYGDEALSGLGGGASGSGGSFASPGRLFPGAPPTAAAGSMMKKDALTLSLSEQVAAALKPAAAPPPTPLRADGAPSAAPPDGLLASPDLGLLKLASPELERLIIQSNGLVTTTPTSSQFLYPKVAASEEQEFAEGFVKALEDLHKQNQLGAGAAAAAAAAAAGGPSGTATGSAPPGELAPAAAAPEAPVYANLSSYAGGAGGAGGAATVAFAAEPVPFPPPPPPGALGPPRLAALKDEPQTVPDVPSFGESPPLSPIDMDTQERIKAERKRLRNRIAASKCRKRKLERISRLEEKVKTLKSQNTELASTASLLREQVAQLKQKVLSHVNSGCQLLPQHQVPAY
UniProt P23276: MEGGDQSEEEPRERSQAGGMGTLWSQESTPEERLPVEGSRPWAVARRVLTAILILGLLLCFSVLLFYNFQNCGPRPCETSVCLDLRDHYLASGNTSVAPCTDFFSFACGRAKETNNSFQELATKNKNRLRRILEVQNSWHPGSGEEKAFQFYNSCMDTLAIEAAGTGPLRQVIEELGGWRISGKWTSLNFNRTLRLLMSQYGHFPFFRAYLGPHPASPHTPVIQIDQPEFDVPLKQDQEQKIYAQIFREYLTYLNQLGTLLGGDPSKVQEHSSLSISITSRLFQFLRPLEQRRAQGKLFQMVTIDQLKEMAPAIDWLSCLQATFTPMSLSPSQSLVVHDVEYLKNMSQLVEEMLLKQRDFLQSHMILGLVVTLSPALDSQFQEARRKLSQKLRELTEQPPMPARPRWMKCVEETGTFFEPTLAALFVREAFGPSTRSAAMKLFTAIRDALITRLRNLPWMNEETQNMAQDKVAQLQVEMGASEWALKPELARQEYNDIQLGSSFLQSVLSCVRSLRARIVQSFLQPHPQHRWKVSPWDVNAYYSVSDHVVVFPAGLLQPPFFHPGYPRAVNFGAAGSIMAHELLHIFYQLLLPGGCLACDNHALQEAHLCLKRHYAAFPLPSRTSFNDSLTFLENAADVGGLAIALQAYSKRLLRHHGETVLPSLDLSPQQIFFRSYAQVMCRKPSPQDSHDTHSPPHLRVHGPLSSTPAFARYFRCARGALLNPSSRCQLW
UniProt Q8N6L1: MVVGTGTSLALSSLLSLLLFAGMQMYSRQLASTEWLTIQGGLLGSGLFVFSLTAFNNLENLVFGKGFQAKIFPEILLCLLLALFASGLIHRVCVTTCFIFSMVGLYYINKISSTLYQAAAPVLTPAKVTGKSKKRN
UniProt O00139: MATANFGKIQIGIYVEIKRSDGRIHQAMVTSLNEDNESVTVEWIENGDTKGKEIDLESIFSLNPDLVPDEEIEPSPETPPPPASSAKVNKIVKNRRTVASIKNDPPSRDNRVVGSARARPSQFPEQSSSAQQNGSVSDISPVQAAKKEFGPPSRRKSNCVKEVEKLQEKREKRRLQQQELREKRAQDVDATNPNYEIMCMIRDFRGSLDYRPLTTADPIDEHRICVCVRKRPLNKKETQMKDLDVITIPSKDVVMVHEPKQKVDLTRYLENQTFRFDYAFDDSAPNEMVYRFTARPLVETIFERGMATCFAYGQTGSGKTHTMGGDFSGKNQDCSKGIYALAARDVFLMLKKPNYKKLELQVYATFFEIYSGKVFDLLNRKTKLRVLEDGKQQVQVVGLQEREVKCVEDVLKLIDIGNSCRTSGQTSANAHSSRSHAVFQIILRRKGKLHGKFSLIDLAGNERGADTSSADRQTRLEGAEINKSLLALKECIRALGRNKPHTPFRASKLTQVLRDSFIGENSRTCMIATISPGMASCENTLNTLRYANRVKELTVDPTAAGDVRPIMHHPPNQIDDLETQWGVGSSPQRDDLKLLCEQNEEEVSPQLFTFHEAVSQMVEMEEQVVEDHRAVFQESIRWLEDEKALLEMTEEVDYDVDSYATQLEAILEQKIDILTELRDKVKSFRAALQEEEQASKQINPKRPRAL
UniProt Q9NVR0: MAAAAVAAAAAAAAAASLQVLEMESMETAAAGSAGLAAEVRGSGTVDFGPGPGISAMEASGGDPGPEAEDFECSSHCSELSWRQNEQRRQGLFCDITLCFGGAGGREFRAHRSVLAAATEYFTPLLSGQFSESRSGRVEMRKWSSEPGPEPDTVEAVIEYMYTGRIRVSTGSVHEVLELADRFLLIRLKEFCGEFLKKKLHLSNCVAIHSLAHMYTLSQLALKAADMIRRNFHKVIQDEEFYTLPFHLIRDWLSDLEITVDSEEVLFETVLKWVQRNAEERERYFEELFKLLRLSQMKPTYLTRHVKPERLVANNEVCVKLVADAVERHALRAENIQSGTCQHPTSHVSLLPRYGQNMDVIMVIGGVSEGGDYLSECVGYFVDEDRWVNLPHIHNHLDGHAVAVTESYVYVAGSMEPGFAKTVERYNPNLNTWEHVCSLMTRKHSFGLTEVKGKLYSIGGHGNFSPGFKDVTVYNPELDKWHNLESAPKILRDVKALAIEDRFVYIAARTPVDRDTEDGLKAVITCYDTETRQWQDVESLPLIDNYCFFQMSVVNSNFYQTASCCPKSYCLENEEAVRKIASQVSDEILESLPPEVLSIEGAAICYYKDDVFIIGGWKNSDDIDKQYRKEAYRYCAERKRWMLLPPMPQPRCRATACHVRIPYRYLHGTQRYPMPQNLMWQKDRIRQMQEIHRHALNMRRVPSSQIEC
UniProt O60333: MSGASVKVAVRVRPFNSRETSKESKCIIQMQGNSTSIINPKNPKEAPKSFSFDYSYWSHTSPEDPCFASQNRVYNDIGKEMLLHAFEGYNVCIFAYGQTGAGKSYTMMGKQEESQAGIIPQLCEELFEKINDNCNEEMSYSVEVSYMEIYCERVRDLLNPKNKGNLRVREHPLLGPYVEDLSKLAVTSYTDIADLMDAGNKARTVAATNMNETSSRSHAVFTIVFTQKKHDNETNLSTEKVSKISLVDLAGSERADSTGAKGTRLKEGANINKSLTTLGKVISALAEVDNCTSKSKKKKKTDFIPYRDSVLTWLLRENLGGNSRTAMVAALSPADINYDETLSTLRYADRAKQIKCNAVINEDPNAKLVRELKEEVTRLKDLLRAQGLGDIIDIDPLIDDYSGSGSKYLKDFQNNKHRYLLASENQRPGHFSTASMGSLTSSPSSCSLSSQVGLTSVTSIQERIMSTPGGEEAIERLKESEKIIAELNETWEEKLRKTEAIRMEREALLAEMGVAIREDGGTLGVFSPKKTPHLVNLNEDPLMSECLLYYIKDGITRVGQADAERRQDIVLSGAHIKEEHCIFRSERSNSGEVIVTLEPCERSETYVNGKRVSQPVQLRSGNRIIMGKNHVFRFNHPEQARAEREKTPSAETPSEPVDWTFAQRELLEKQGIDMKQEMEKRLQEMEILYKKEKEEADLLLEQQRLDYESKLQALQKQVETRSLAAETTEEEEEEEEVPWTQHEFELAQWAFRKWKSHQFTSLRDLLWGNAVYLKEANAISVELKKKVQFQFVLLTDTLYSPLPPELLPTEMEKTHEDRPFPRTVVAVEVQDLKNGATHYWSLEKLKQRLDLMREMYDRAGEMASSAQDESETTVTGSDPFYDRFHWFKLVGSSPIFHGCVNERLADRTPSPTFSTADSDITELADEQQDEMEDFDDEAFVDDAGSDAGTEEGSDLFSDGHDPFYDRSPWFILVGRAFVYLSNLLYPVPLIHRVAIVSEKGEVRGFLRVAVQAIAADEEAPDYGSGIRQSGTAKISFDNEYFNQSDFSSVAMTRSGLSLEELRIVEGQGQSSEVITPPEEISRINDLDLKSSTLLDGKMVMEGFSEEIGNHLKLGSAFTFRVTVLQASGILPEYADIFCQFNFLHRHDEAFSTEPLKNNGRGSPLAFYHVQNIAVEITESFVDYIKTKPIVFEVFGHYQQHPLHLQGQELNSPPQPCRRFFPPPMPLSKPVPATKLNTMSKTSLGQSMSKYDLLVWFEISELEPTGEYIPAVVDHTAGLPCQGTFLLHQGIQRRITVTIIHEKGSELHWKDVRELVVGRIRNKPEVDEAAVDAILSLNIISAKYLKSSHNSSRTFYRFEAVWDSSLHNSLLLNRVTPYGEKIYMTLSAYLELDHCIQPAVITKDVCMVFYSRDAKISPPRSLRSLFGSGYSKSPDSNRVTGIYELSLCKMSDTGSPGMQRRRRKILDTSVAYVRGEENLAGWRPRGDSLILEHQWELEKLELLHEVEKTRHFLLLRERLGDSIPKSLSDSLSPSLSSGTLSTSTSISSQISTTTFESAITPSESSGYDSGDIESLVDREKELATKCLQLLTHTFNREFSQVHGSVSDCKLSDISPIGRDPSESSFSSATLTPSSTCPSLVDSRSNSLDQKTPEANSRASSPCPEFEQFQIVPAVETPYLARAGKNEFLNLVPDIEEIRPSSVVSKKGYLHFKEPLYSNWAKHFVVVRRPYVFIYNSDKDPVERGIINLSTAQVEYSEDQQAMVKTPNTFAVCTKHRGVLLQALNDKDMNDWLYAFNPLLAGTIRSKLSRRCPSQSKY

Experiments:
Test in all cases: log2 fold change, soluble protein after heating vs DMSO (PISA); higher = thermal stabilisation; K562 cells, 10 uM, 30 min; active = over 0.2 and 3.5 SD of the protein, either way, in both replicates (recomputed)
erlotinib = compound: C#Cc1cccc(Nc2ncnc3cc(OCCOC)c(OCCOC)cc23)c1 [erlotinib]
Summary of the method: (§1)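 K562 cells (2×10^6 cells/mL) were treated with 10 μM compound for 30 min, and aliquots were heated for 3 min over 48°C-58°C. Pooled aliquots were extracted in PBS with 0.5% NP-40 at 4°C, and the supernatant after 21,000xg for 90 min was measured by TMTpro 16plex LC-MS/MS with channel sums equalised. Reported thermal stability, relative to control samples and from duplicates, is a log2 fold change.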

[1] = compound: C/C(=N\NC(=O)C1=CC(=CC=C1)S(=O)(=O)N2CCOCC2)/C3=C(C=CC(=C3)Cl)O
Summary of the method: as §1

[2] = compound: C1=CC(=C(C=C1Cl)C2=NC3=NC=CN=C3C(=N2)NC4=CC=NC=C4)F
Summary of the method: as §1

[3] = compound: C1=CC(=CC=C1C2=NC3=C(N2)C=C(C=C3)C(=O)N)OC4=CC=C(C=C4)Cl
Summary of the method: as §1

[4] = compound: C1=CC2=C(C=CC(=C2)/C=C\3/C(=O)NC(=NCC4=CC=CS4)S3)N=C1
Summary of the method: as §1

[5] = compound: C1=CC2=NC=CN=C2C=C1/C=C/3\C(=O)NC(=O)S3
Summary of the method: as §1

[6] = compound: C1=CC=C(C=C1)C2=NC(=C(N2)C3=CC=NC=C3)C4=CC(=C(C=C4)Cl)O
Summary of the method: as §1

[7] = compound: C1=CC=C2C(=C1)C3=NNC4=CC=CC(=C43)C2=O
Summary of the method: as §1

[8] = compound: C1CCN(C1)C(=O)NC2=CC=CC(=C2)NC3=NC=C(C(=N3)NCCC4=CN=CN4)Br
Summary of the method: as §1

[9] = compound: C1CN(CCC1(CC2=CC=C(C=C2)Cl)N)C3=NC=NC4=C3C=CN4
Summary of the method: as §1

Measured: log2 fold change

KSR1 (UniProt Q8IVT5)
inactive: erlotinib 0.082 | [1] 0.004 | [2] 0.044 | [3] -0.044 | [4] 0.162 | [5] 0.058 | [6] 0.185 | [7] -0.106 | [8] -0.088 | [9] 0.058

KPTN (UniProt Q9Y664)
inactive: erlotinib 0.001 | [1] 0.034 | [2] 0.01 | [3] 0.038 | [4] 0.044 | [5] -0.035 | [6] 0.114 | [7] -0.021 | [8] 0.004 | [9] -0.06

KIF13A (UniProt Q9H1H9)
inactive: erlotinib 0.065 | [1] -0.026 | [2] -0.031 | [3] 0.017 | [4] 0.056 | [5] -0.009 | [6] -0.027 | [7] -0.055 | [8] -0.043 | [9] 0.072

KPNB1 (UniProt Q14974)
inactive: erlotinib -0.001 | [1] 0.075 | [2] -0.03 | [3] -0.036 | [4] -0.028 | [5] 0.029 | [6] -0.049 | [7] -0.016 | [8] -0.034 | [9] -0.136

KDM5D isoform 3 (UniProt Q9BY66)
inactive: erlotinib -0.036 | [1] -0.142 | [2] 0.067 | [3] -0.147 | [4] 0.121 | [5] -0.034 | [6] -0.005 | [7] 0.026 | [8] 0.035 | [9] 0.022

KCTD15 (UniProt Q96SI1)
inactive: erlotinib 0.048 | [1] 0.017 | [2] 0.087 | [3] -0.004 | [4] 0.019 | [5] 0.03 | [6] -0.101 | [7] -0.044 | [8] 0.065 | [9] 0.015

KDELR2 (UniProt P33947)
inactive: erlotinib -0.06 | [1] -0.052 | [2] 0.048 | [3] -0.02 | [4] 0.042 | [5] 0.024 | [6] 0.201 | [7] 0.048 | [8] -0.102 | [9] 0.019

KCTD10 (UniProt Q9H3F6)
inactive: erlotinib -0.041 | [1] 0.159 | [2] -0.051 | [3] 0.014 | [4] -0.021 | [5] 0.049 | [6] -0.171 | [7] 0.045 | [8] -0.027 | [9] -0.055

KPNA2 (UniProt P52292)
inactive: erlotinib 0.011 | [1] -0.033 | [2] -0.479 | [3] 0 | [4] -0.107 | [5] 0.066 | [6] -0.008 | [7] -0.026 | [8] -0.076 | [9] -0.092

KDM8 isoform 3 (UniProt Q8N371)
inactive: erlotinib 0.008 | [1] 0.005 | [2] 0.041 | [3] -0.019 | [4] 0.099 | [5] 0.023 | [6] 0.012 | [7] 0.017 | [8] -0.049 | [9] 0.024

KMT2C isoform 3 (UniProt Q8NEZ4)
inactive: erlotinib 0.038 | [1] -0.032 | [2] 0.006 | [3] 0.012 | [4] 0.078 | [5] 0.021 | [6] -0.194 | [7] -0.056 | [8] 0.003 | [9] 0.018

KIAA0319L (UniProt Q8IZA0)
inactive: erlotinib -0.036 | [1] 0.015 | [2] -0.022 | [3] 0.01 | [4] 0.032 | [5] 0.023 | [6] 0.035 | [7] -0.049 | [8] -0.01 | [9] 0.042

KCTD3 (UniProt Q9Y597)
inactive: erlotinib 0.016 | [1] -0.082 | [2] -0.029 | [3] 0.045 | [4] 0.102 | [5] 0.001 | [6] -0.182 | [7] -0.037 | [8] 0.032 | [9] 0.028

KHDRBS1 (UniProt Q07666)
inactive: erlotinib -0.023 | [1] 0.042 | [2] -0.076 | [3] 0.029 | [4] -0.088 | [5] 0.046 | [6] 0.027 | [7] 0.014 | [8] -0.029 | [9] -0.084

KIF11 (UniProt P52732)
inactive: erlotinib 0.042 | [1] 0.032 | [2] -0.106 | [3] -0.058 | [4] 0.038 | [5] 0.012 | [6] -0.168 | [7] 0.011 | [8] -0.017 | [9] -0.158

KHDC4 (UniProt Q7Z7F0)
inactive: erlotinib -0.005 | [1] 0.14 | [2] 0.009 | [3] -0.058 | [4] 0.089 | [5] 0.084 | [6] 0.074 | [7] -0.041 | [8] -0.042 | [9] 0.025

KHK isoform 2 (UniProt P50053)
inactive: erlotinib 0.056 | [1] -0.031 | [2] 0.015 | [3] -0.021 | [4] 0.022 | [5] 0.019 | [6] 0.013 | [7] -0.045 | [8] -0.024 | [9] 0.071

JUND (UniProt P17535)
inactive: erlotinib -0.021 | [1] 0.02 | [2] -0.036 | [3] 0.02 | [4] 0.018 | [5] 0.061 | [6] -0.098 | [7] 0.001 | [8] -0.026 | [9] -0.053

KEL (UniProt P23276)
inactive: erlotinib 0.011 | [1] 0.042 | [2] 0.008 | [3] 0.13 | [4] -0.005 | [5] 0.147 | [6] -0.029 | [7] -0.067 | [8] -0.013 | [9] -0.001

JMJD1C (UniProt Q15652)
inactive: erlotinib 0.018 | [1] -0.013 | [2] 0.1 | [3] 0.004 | [4] 0.08 | [5] 0.055 | [6] -0.055 | [7] -0.065 | [8] -0.035 | [9] 0.025

KIF3B (UniProt O15066)
inactive: erlotinib -0.015 | [1] 0.016 | [2] -0.015 | [3] -0.108 | [4] -0.02 | [5] 0.004 | [6] -0.029 | [7] 0.077 | [8] -0.101 | [9] -0.039

KRTCAP2 isoform 2 (UniProt Q8N6L1)
inactive: erlotinib 0.02 | [1] 0.1 | [2] 0.069 | [3] 0.012 | [4] -0.073 | [5] 0.057 | [6] 0.159 | [7] 0.048 | [8] 0.007 | [9] 0.16

KIF2A isoform 4 (UniProt O00139)
inactive: erlotinib -0.003 | [1] 0.007 | [2] -0.201 | [3] -0.006 | [4] -0.013 | [5] 0.014 | [6] -0.021 | [7] -0.002 | [8] -0.06 | [9] -0.153

KLHL11 (UniProt Q9NVR0)
inactive: erlotinib -0.009 | [1] 0.04 | [2] 0.028 | [3] 0.042 | [4] 0 | [5] -0.001 | [6] 0.05 | [7] -0.187 | [8] 0.003 | [9] 0.02

KCMF1 (UniProt Q9P0J7)
inactive: erlotinib -0.001 | [1] -0.112 | [2] 0.098 | [3] -0.014 | [4] -0.056 | [5] 0.02 | [6] 0.032 | [7] 0 | [8] -0.013 | [9] -0.174

Quoted at random: 2 records from the list
KCMF1 (UniProt Q9P0J7)
inactive: erlotinib -0.001 | [1] -0.112 | [2] 0.098 | [3] -0.014 | [4] -0.056 | [5] 0.02 | [6] 0.032 | [7] 0 | [8] -0.013 | [9] -0.174

KIF3B (UniProt O15066)
inactive: erlotinib -0.015 | [1] 0.016 | [2] -0.015 | [3] -0.108 | [4] -0.02 | [5] 0.004 | [6] -0.029 | [7] 0.077 | [8] -0.101 | [9] -0.039

The list goes on.

KLHL18 (UniProt O94889)
inactive: erlotinib -0.011 | [1] 0 | [2] 0.12 | [3] 0.022 | [4] 0.031 | [5] -0.02 | [6] -0.042 | [7] -0.085 | [8] -0.042 | [9] -0.026

KAZN isoform 3 (UniProt Q674X7)
inactive: erlotinib 0.059 | [1] 0.002 | [2] 0.018 | [3] 0.021 | [4] -0.005 | [5] -0.012 | [6] -0.008 | [7] -0.022 | [8] -0.014 | [9] 0.025

KIFBP (UniProt Q96EK5)
inactive: erlotinib -0.034 | [1] 0.147 | [2] 0 | [3] 0.017 | [4] 0.074 | [5] -0.015 | [6] -0.008 | [7] 0.03 | [8] 0.014 | [9] -0.058

KIF1B isoform 4 (UniProt O60333)
inactive: erlotinib 0.031 | [1] 0.095 | [2] 0.042 | [3] -0.059 | [4] 0.002 | [5] 0.018 | [6] -0.092 | [7] 0.078 | [8] -0.02 | [9] -0.091
